Data reported in PubChem BioAssay AID256 (DTP/NCI, 2004).
The list shows only some results of the screen, not a fair sample: it is rich in T/C values a quarter to a half above the control, in often repeated tests (any T/C) and in doses without a T/C. Further doses and runs are listed elsewhere. T/C is the treated group as % of the vehicle group. Some doses have a count of surviving animals in place of a T/C: the source holds a T/C of zero for them, seemingly a mark for toxic or unscored doses. Some doses without a T/C left all or most animals alive at the check, yet need not have been tolerated: the source hardly ever lists a survival T/C far under the control, and the zero likely stands for such cases as well. Survivors were counted at the toxicity check, usually on the fifth day, unless a day is given; later deaths do not show. Schedule codes are those of the source, read here as Q, the interval in days (D) or hours (H), X, the number of doses. Some structures stand for samples that the source files as different forms (salt, stereo form or complex); doses refer to the form tested. Some entries hold several experiments; the results are listed from low to high. Where survival is the endpoint, this PubChem deposit counts one and a half times the control or more as active, and values a quarter to a half above the control carry no call in these data; other NCI protocols may use other cut-offs.

System: CD2F1 mice, L1210 leukemia ip, survival T/C
Assay: NCI In Vivo Anticancer Drug Screen. Data for tumor model L1210 Leukemia (intraperitoneal) in CD2F1 (CDF1) mice
Settings: higher T/C = longer survival
In short: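 Activity against a transplanted murine tumor was judged by comparing the compound group with a vehicle group. The outcome in the treated animals was divided by that in the controls.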

[1] = T/C endpoint: mean survival time, dose: 200.0 mg/kg/injection, schedule: Q01DX001 (ip), vehicle: saline with Tween-80
[2] = T/C endpoint: mean survival time, dose: 400.0 mg/kg/injection, schedule: Q01DX001 (ip), vehicle: saline with Tween-80
[3] = T/C endpoint: mean survival time, dose: 400.0 mg/kg/injection, schedule: Q04DX003 (ip), vehicle: saline with Tween-80
[4] = T/C endpoint: mean survival time, dose: 200.0 mg/kg/injection, schedule: Q04DX003 (ip), vehicle: saline with Tween-80
[5] = T/C endpoint: mean survival time, dose: 200.0 mg/kg/injection, schedule: Q01DX009 (ip), vehicle: saline with Tween-80

## CCC(c1ccc(OC(=O)Cc2ccc(N(CCCl)CCCl)cc2)cc1)C(CC)c1ccc(OC(=O)Cc2ccc(N(CCCl)CCCl)cc2)cc1 (stereo unspecified)
T/C endpoint: mean survival time, dose: 3.1 mg/kg/injection, schedule: Q03HX008 (ip), vehicle: saline with Tween-80
  survivor count: 6 of 6
T/C endpoint: mean survival time, dose: 6.3 mg/kg/injection, schedule: Q03HX016 (ip), vehicle: saline with Tween-80
  survivor count: 6 of 6
T/C endpoint: mean survival time, dose: 12.5 mg/kg/injection, schedule: Q03HX008 (ip), vehicle: saline with Tween-80
  survivor count: 6 of 6
T/C endpoint: mean survival time, dose: 12.5 mg/kg/injection, schedule: Q03HX016 (ip), vehicle: saline with Tween-80
  survivor count: 6 of 6
T/C endpoint: mean survival time, dose: 25.0 mg/kg/injection, schedule: Q03HX008 (ip), vehicle: saline with Tween-80
  survivor count: 6 of 6
T/C endpoint: mean survival time, dose: 25.0 mg/kg/injection, schedule: Q03HX016 (ip), vehicle: saline with Tween-80
  survivor count: 6 of 6
T/C endpoint: mean survival time, dose: 50.0 mg/kg/injection, schedule: Q01DX001 (ip), vehicle: saline with Tween-80
  survivor count: 6 of 6
T/C endpoint: mean survival time, dose: 50.0 mg/kg/injection, schedule: Q03HX008 (ip), vehicle: saline with Tween-80
  survivor count: 6 of 6
T/C endpoint: mean survival time, dose: 80.0 mg/kg/injection, schedule: Q04DX003 (ip), vehicle: saline
  survivor count: 10 of 10
T/C endpoint: mean survival time, dose: 120.0 mg/kg/injection, schedule: Q04DX003 (ip), vehicle: saline
  survivor count: 10 of 10
T/C endpoint: mean survival time, dose: 180.0 mg/kg/injection, schedule: Q04DX003 (ip), vehicle: saline
  survivor count: 10 of 10
[1]
  survivor count: 6 of 6
T/C endpoint: mean survival time, dose: 270.0 mg/kg/injection, schedule: Q04DX003 (ip), vehicle: saline
  survivor count: 10 of 10
[2]
  survivor count: 6 of 6
[3]
  survivor count: 6 of 6
T/C endpoint: mean survival time, dose: 405.0 mg/kg/injection, schedule: Q04DX003 (ip), vehicle: saline
  survivor count: 10 of 10
T/C endpoint: mean survival time, dose: 800.0 mg/kg/injection, schedule: Q08DX002 (ip), vehicle: saline with Tween-80
  survivor count: 6 of 6

## C=CCn1c(NCCN(CC)CC)nc2ccc(Cl)cc2c1=O
T/C endpoint: mean survival time, dose: 100.0 mg/kg/injection, schedule: Q04DX003 (ip), vehicle: saline with Tween-80
  survivor count: 3 of 6
[4]
  survivor count: 0 of 6
[3]
  survivor count: 0 of 6

## Nn1c2ccccc2c2ccccc21
T/C endpoint: mean survival time, dose: 300.0 mg/kg/injection, schedule: Q01DX001 (ip), vehicle: saline
  survivor count: 0 of 6

## O=C(CCCC(Br)c1ccccc1)c1ccccc1 (stereo unspecified)
[1]
  survivor count: 6 of 6

## CCOCCc1ccncc1
T/C endpoint: mean survival time, dose: 400.0 mg/kg/injection, schedule: Q04DX003 (ip), vehicle: saline
  survivor count: 0 of 6

## CCCCCCCCCCCCCCCCC/C=C1\CC(=O)OC1=O
[4]
  survivor count: 6 of 6
[3]
  survivor count: 6 of 6

## [CH3][Sn]([CH3])([Cl])[c]1cc[c]([Sn]([CH3])([CH3])[Cl])cc1
T/C endpoint: median survival time, dose: 4.0 mg/kg/injection, schedule: Q01DX009 (ip), vehicle: saline
  survivor count: 0 of 6
T/C endpoint: median survival time, dose: 8.0 mg/kg/injection, schedule: Q01DX009 (ip), vehicle: saline
  survivor count: 0 of 6
T/C endpoint: median survival time, dose: 16.0 mg/kg/injection, schedule: Q01DX009 (ip), vehicle: saline
  survivor count: 0 of 6

## Cn1c2nc3ccccc3c-2nc2ccccc21
T/C endpoint: mean survival time, dose: 50.0 mg/kg/injection, schedule: Q01DX009 (ip), vehicle: water
  survivor count: 6 of 6
T/C endpoint: mean survival time, dose: 100.0 mg/kg/injection, schedule: Q01DX009 (ip), vehicle: water
  survivor count: 6 of 6
T/C endpoint: mean survival time, dose: 200.0 mg/kg/injection, schedule: Q01DX009 (ip), vehicle: water
  survivor count: 5 of 6
T/C endpoint: mean survival time, dose: 400.0 mg/kg/injection, schedule: Q01DX009 (ip), vehicle: Klucel (hydroxypropylcellulose) (HPC)
  survivor count: 1 of 6
T/C endpoint: mean survival time, dose: 400.0 mg/kg/injection, schedule: Q01DX009 (ip), vehicle: water
  survivor count: 0 of 6

## Nc1nc(N)n(-c2ccccn2)n1
T/C endpoint: mean survival time, dose: 300.0 mg/kg/injection, schedule: Q01DX001 (ip), vehicle: other
  survivor count: 3 of 6

## O/N=C\c1ccc(/C=N/O)cc1
[3]
  survivor count: 1 of 6

## c1cc2c(c(OCC3=NCCN3)c1)CCCC2
T/C endpoint: mean survival time, dose: 100.0 mg/kg/injection, schedule: Q04DX002 (ip), vehicle: saline
  survivor count: 0 of 3

## O=C1C=C(c2ccccc2)CC1
[5]
  survivor count: 3 of 6
[3]
  survivor count: 0 of 6

## CN(C)CCC[n+]1cc2c3ccccc3c(N)cc2c2ccccc21
T/C endpoint: mean survival time, dose: 100.0 mg/kg/injection, schedule: Q04DX003 (ip), vehicle: water
  survivor count: 3 of 6

## COc1ccc2c(c1)CCn1c(C)c(COC(=O)NC(C)C)c(COC(=O)NC(C)C)c1-2
T/C endpoint: median survival time, dose: 6.25 mg/kg/injection, schedule: Q01DX009 (ip), vehicle: distilled water + Tween-80
  T/C: 127 and 130 % of control
T/C endpoint: median survival time, dose: 12.5 mg/kg/injection, schedule: Q01DX009 (ip), vehicle: distilled water + Tween-80
  T/C: 126, 136, 138 % of control
T/C endpoint: median survival time, dose: 25.0 mg/kg/injection, schedule: Q01DX009 (ip), vehicle: distilled water + Tween-80
  T/C: 125 % of control
T/C endpoint: median survival time, dose: 50.0 mg/kg/injection, schedule: Q01DX009 (ip), vehicle: distilled water + Tween-80
  survivor count: 1 of 6 and 3 of 6

## N#CC(C#N)=NNc1ccc2cn[nH]c2c1
T/C endpoint: median survival time, dose: 200.0 mg/kg/injection, schedule: Q01DX009 (ip), vehicle: Klucel (hydroxypropylcellulose) (HPC)
  survivor count: 3 of 6

## Nc1nc2c(ncn2-c2cccc(NC(=O)Nc3ccc(S(=O)(=O)F)c(Cl)c3)c2)c(=O)[nH]1 (tested in a mixture with another compound)
[2]
  survivor count: 6 of 6

## C=C1C(=O)C2=CC1CCC(=O)C1(C)CCC(OC(C)=O)C(C)(C)C1CC2O (stereo unspecified)
T/C endpoint: mean survival time, dose: 120.0 mg/kg/injection, schedule: Q01DX009 (ip), vehicle: Klucel (hydroxypropylcellulose) (HPC)
  survivor count: 0 of 6

## CSc1cc(NC(C)=O)nc2nc[nH]c12
T/C endpoint: mean survival time, dose: 400.0 mg/kg/injection, schedule: Q01DX001 (ip), vehicle: Klucel (hydroxypropylcellulose) (HPC)
  survivor count: 1 of 6

## Cc1cccc(C)c1NC(=O)CCl
[2]
  survivor count: 0 of 6

## Nc1nc(OCc2ccccc2)ncc1C(=O)NCC(=O)O
T/C endpoint: mean survival time, dose: 100.0 mg/kg/injection, schedule: Q01DX009 (ip), vehicle: saline with Tween-80
  survivor count: 3 of 6
[5]
  survivor count: 1 of 6
T/C endpoint: mean survival time, dose: 400.0 mg/kg/injection, schedule: Q01DX009 (ip), vehicle: saline with Tween-80
  survivor count: 1 of 6
